Drawing on paper PMC6404604, this text covers binding for 2 molecules.

Sequences of proteins named here, by UniProt entry; tags and fusion partners are left off. A change or cut given only in a name is not applied to a line headed by its entry.
UniProt P34216: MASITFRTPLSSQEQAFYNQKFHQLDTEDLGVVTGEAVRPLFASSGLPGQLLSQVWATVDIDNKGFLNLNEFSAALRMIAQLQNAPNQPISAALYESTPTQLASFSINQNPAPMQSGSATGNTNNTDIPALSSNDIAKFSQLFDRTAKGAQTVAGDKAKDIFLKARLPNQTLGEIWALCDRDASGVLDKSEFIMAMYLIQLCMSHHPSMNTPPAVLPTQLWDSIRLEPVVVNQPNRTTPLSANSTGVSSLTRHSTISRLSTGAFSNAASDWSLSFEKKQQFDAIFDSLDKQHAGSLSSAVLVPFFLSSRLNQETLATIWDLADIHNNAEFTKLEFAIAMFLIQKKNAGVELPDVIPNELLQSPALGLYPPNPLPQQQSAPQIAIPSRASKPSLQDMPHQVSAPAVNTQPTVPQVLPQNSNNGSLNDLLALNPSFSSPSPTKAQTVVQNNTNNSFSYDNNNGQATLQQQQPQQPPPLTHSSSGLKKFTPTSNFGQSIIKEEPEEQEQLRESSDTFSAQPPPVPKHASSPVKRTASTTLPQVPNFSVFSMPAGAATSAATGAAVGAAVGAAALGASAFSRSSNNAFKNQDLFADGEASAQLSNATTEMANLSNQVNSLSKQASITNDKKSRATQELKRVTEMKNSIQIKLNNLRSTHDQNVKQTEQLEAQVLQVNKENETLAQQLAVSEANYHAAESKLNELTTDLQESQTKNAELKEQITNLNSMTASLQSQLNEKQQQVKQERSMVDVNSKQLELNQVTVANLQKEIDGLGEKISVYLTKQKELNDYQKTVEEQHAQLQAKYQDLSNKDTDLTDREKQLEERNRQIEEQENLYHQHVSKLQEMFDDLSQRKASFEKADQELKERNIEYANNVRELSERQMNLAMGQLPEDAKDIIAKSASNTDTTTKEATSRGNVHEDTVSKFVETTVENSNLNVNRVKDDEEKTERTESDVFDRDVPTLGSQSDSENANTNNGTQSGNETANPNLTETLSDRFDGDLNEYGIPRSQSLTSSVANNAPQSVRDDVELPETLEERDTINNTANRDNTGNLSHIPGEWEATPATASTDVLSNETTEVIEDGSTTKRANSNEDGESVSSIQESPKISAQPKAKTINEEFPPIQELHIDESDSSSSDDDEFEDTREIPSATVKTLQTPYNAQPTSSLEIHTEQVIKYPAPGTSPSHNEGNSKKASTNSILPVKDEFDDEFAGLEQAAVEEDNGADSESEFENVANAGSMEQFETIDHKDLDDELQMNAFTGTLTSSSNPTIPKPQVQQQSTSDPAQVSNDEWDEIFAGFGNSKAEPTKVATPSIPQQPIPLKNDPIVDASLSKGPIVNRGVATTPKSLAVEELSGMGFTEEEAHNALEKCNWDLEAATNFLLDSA

Results are given in words; binding and its absence hold for the method and conditions named. In cells and extracts the contact can be indirect. Binding calls can cover weak binding; strength is not graded here. Where a sequence is shown, tags or fusion partners need not be part of it.

The assay has as its target His6-Ede1 (EH1-3) (S. cerevisiae) (UniProt P34216). The assay is described as follows: pull-down; purified His6-tagged protein (~30 ug) held on Ni-NTA agarose beads, incubated with 200 ul yeast lysate for 2 hr at 4 degrees; lysis buffer 10 mM Tris pH 8.0, 140 mM NaCl, 0.1% Tween-20, 1 mM beta-mercaptoethanol; detection by anti-GFP immunoblot; only the target purified. Background: A western blot detects proteins with antibodies after separation by electrophoresis.

B1: Pal2-GFP (protein, UniProt P38809 1-366)
chain: MNQTGRTIGGPQNGVNTVINPFRVSPSEDRVSSRDETPRNYNNPFLNEDDTRRAHNSSVSNSRQERLPSYEEAAGTPKQQAPYPKEKKRSSGSNSHQHNHHHHRRTSHGHRDKDKQKSKSRTKVKPPKNVDTIDKMDVTGLFGGSFHHDGPFDACTPQRNKNNKVAPVLAFPADGPNNTVGGRTSKKSTLDEVFGRETVDDDSETLNQLQDRAYLFNKANSSTTTLDAIKPNSKNITQFDSKMKTELVHGPITMGLGSTTFLDGAPASSAAIEQDVINHAQESRRKNSIARKKSLPSRRHLQVNNNNLKLVKTHSGHLEQKDVDDNRTSVPVTATQGSGHEDVVKKENTGNKLLRRVKSLKTSKKH
B1: the binding result was “binds”.

B2: Pal1-GFP (protein, UniProt Q05518 1-499)
chain: MENRNSSTSSRPFSVNNPFRNATVDSSINQYKNDSQFQEWAKNQSRTNSFDMPQLNTRTSSQLSFPNIPEDEPQRNADQQGAFYSGLESFSSGSLSPPSRPLSSKNPFLDDVSSATDFRRSPPPVSRNKNHPTAKEEKEQLRQRYLEESDVSTVGNTRENTDLPPSYEEITSTNGSRRAYPKEKVSRPSSHREHSNSGTYISRRSSSHHHREASSSSTPSKKGKRKSKVIVPKNVDTIDKLDVTGLFGGSFHHDGPFDAVTPHRNKNNKAAPVLAFPVDGPNSTIGGASTKKSALDEVFGRDDTDDSDIYQYSSQTLRRGGDTQDAIKANVGNVQQMDAKNKTELVHGPVTAGLGSSTFLDGAPASSAAIRNDIKAHSYHNRNGGLQRNKSLSQRLGLGGSGDSNAPMTGVRRNLSLSRDNYDVGHSNEGVRRSKTVNSPNRTHKSNYTTDFDGQDDHNEDEEDVYLGVRYNEPNMKKKSTGSKLLSRVKSLKVGRKSQ
As to B2, the binding result is recorded as “binds”.
